No constants are given. Whether binding was seen depends on the method and setting. A result given as binding can be weak or reduced; the word gives no strength. Tags and fused reporters may be left off the sequences shown. For some assays here: Binding seen in cells or lysates may run through a third protein.
What was measured:
[1] = molecular target: GST-GhA01EP1 (GST-GhA01EP1-pGS21T) (upland cotton (Gossypium hirsutum)); assay: pull-down; purified ALEU (SCPL35) protein incubated with GST-beads in combination with GST or GhA01EP1 for 4 h; washed three times with TNT Buffer; Western blot; both purified
[2] = molecular target: GhA01EP1-GST (GhA01EP1-GST-p1301S) (upland cotton (Gossypium hirsutum)); assay: co-IP; GhA01EP1-GST with ALEU-GFP or SCPL35-GFP expressed in tobacco leaves by Agrobacterium; protein extracted from leaf; Western blot with GST and GFP antibodies

B1: His-TRX-SCPL35 (His-TRX-SCPL35-pET32T) (enzyme, UniProt Q9LEY1 21-480)
chain: RKPEKKVTISSSGRKEDDLVTGLPGQPPVNFKHYAGYVNLGPEQKQKALFYWFFEAQQNSSRRPLVLWLNGGPGCSSIAYGAAQELGPFLVHDNGGKLTYNHFSWNKEANMLFLEAPVGVGFSYTNNSMDLQKLGDEVTASDSLAFLINWFMKFPEFRSSEFYISGESYAGHYVPQLAEVIYDRNKKVTKDSSINLKGFMIGNAVINEATDMAGLVDYAWSHAIISDEVHTSIHGSCSFEEDTTNKTEQCYNNFKGFMDAYNDIDIYSIYTPVCLSSLLSSSPRKPKIVVSPRLLTFDDLWDKFPAGYDPCTESYAENYFNRKDVQVALHANVTNLPYPYSPCSGVIKRWSDAPSTMIPIIQKLLTGGLRIWIYSGDTDGRVPVTSTRYSIKKMGLKVESPWRSWFHKSQVAGWVETYAGGLNFVTVRGAGHQVPALAPAQSLTLFSHFISSVPLPSKRF
binding [1]: binds

B2: SCPL35-GFP (SCPL35-GFP-p1301S) (enzyme, UniProt Q9LEY1 21-480)
chain: RKPEKKVTISSSGRKEDDLVTGLPGQPPVNFKHYAGYVNLGPEQKQKALFYWFFEAQQNSSRRPLVLWLNGGPGCSSIAYGAAQELGPFLVHDNGGKLTYNHFSWNKEANMLFLEAPVGVGFSYTNNSMDLQKLGDEVTASDSLAFLINWFMKFPEFRSSEFYISGESYAGHYVPQLAEVIYDRNKKVTKDSSINLKGFMIGNAVINEATDMAGLVDYAWSHAIISDEVHTSIHGSCSFEEDTTNKTEQCYNNFKGFMDAYNDIDIYSIYTPVCLSSLLSSSPRKPKIVVSPRLLTFDDLWDKFPAGYDPCTESYAENYFNRKDVQVALHANVTNLPYPYSPCSGVIKRWSDAPSTMIPIIQKLLTGGLRIWIYSGDTDGRVPVTSTRYSIKKMGLKVESPWRSWFHKSQVAGWVETYAGGLNFVTVRGAGHQVPALAPAQSLTLFSHFISSVPLPSKRF
binding [2]: binds

From PMC12192239
